{
  "source": "patent US11400056B2",
  "about": "“Pharmaceutical composition comprising gallstone solubilizer for treatment of gallbladder disease” (SurgiNex Co., Ltd., priority 2016, dated 2022)",
  "key": {"[1]": {"assay": "Evaluation of gallstone dissolution, cholesterol stone", "set-up": "species or system human", "details": "37° C., 4 hours; Table 2 and FIG. 1", "description": "(§1) In order to evaluate the cholesterol stone and pigmented stone dissolution abilities of each of Examples 1 to 3 and Comparative Examples 1 and 2 prepared according to the Preparation Example above, cholesterol stones and pigmented stones removed during surgery of gallstone patients were obtained, thereby preparing gallstones. 0.5 g of each of the prepared gallstones was placed in an Eppendorf tube, and then 0.5 ml of each of the gallstone-dissolving agents of Examples 1 to 3 and Comparative Examples 1 and 2 was added to the Eppendorf tube containing the gallstone. Each tube was left to stand at 37° C. for 4 hours. Thereafter, the gallstone dissolution ability of each compound was evaluated by measuring the mass of the gallstones before and after dissolving the gallstone by treatment with each compound. The results of evaluating the abilities to dissolve cholesterol stones and pigmented stones are shown in Tables 2 and 3 below, respectively, and photographs before and after dissolving the gallstones are comparatively shown in FIGS. 1 and 2, respectively.\n(§2) The gallstone dissolution ability was calculated using the following equation: Gallstone dissolution ability (%)=(weight of gallstone after dissolution)/(weight of gallstone before dissolution)×100"}, "[2]": {"assay": "Evaluation of gallstone dissolution, pigmented stone", "set-up": "species or system human", "details": "37° C., 4 hours; Table 3 and FIG. 2", "description": "as §1, §2"}},
  "note": "Some results were stated once for a whole list of compounds, not compound by compound.",
  "data": [
    {"smiles": "COC(=O)c1cccc(C)c1", "note": "[Example 2, methyl 3-methylbenzoate]", "values": [
      {"measurement": "ability to dissolve the cholesterol stone (in words)", "setting": "[1]", "value": "excellent ability to dissolve the cholesterol stone, compared to Comparative Example 1 or 2"},
      {"measurement": "ability to dissolve the pigmented stone (in words)", "setting": "[2]", "value": "excellent ability to dissolve the pigmented stone"}
    ]}
  ]
}
